Our source for the binding values is US20040096444A1 (DUKE UNIVERSITY, published 2004).

The chains behind the UniProt entries cited, without tags or fusion partners. Where a name states a change or a piece, a line headed by the entry shows the natural chain unless it says otherwise. Residues count along the entry.
UniProt P21796: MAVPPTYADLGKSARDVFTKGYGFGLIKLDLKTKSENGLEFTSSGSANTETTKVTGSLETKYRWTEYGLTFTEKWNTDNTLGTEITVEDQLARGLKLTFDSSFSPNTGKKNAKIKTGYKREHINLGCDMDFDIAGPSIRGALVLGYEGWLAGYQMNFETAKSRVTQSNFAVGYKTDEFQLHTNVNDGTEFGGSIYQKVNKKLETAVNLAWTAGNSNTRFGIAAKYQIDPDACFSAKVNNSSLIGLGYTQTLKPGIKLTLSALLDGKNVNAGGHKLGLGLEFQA
UniProt P00747, residues 462-810: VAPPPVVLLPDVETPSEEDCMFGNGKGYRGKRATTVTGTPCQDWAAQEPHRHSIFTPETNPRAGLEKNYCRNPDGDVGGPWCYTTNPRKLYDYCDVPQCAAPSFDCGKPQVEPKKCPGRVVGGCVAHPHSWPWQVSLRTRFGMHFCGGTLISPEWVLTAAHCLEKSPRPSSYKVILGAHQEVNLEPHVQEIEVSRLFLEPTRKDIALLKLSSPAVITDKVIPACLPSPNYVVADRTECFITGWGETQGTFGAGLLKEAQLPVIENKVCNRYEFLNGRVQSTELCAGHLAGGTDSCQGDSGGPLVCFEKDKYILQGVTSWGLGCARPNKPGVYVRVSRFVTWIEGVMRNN

No constants are given. Whether binding was seen depends on the method and setting. Some results given as binding are weak or reduced against the parent protein; the word gives no strength.

In assay [1] the target is VDAC1 on the surface of human umbilical vein endothelial cells (HUVEC) (human) (UniProt P21796). As to the kind of experiment: competition with 125I-K5 (100 nM) on HUVEC.
For assay [2] the target is unchanged. In words: FACS on HUVEC; blocking of anti-SK-peptide IgG.

In the case of “mini-Pg, a K5 containing plasminogen fragment (from UniProt P00747 462-810) (ligand)”, the binding result in assay [1] and in assay [2] was “binds” throughout.
